Laboratory results reported in the supplement of paper PMC10849652.
Some of the results follow. Residues, ends and D or L forms follow the SMILES beside them. *: point of attachment. Cbz = O=C(OCc1ccccc1)*

Protein sequences, listed by entry. Tags and fused reporters are not part of them. Lines headed by an entry give the natural chain unless they say otherwise; changes in a name come on top.
UniProt Q14186: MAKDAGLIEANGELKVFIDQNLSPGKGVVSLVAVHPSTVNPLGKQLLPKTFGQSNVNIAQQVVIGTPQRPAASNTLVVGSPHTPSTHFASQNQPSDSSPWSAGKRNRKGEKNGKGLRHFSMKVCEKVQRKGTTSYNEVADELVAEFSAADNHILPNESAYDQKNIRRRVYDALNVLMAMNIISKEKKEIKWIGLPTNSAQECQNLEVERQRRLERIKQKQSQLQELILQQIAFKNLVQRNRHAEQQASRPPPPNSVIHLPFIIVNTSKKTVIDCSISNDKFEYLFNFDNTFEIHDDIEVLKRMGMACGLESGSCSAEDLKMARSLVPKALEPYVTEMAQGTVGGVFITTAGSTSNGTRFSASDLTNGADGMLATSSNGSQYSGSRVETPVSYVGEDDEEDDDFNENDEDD
UniProt Q9Y584: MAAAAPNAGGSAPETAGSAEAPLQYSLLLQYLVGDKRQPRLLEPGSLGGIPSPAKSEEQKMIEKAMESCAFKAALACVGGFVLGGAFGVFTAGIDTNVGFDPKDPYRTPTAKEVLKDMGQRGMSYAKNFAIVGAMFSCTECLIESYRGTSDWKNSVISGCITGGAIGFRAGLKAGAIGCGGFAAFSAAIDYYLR
UniProt Q00059: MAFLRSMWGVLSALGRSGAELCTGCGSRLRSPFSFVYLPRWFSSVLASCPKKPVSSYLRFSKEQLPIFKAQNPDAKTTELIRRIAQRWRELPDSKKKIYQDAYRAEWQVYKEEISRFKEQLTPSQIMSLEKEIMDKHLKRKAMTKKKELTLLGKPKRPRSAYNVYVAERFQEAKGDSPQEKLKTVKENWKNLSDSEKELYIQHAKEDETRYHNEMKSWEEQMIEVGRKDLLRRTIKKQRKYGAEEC
UniProt O60220: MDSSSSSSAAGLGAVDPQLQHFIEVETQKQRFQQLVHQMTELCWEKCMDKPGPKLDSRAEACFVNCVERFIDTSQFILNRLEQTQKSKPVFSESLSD
UniProt Q92609: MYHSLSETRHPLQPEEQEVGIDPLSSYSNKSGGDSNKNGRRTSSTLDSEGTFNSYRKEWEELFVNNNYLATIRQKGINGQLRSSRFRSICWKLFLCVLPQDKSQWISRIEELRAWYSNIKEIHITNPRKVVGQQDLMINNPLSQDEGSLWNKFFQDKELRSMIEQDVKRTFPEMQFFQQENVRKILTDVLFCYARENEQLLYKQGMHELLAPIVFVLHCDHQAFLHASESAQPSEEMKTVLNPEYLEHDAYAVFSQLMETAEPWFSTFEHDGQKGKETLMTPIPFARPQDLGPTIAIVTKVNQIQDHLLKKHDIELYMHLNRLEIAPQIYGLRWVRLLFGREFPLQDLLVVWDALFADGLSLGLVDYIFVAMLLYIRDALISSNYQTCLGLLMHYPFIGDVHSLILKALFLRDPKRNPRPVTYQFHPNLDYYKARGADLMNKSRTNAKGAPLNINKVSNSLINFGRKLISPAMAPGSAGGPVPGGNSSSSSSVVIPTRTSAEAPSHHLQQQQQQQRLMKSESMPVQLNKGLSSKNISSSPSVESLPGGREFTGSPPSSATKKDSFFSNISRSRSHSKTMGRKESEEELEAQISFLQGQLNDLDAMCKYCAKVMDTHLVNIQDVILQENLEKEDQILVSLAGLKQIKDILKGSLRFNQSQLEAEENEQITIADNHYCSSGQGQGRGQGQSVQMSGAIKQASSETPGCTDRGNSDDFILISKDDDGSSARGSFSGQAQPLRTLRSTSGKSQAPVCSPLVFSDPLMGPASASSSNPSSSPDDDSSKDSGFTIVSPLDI
UniProt Q9Y5J7: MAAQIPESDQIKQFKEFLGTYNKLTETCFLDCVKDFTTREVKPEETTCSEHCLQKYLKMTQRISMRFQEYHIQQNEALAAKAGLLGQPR
UniProt O43615: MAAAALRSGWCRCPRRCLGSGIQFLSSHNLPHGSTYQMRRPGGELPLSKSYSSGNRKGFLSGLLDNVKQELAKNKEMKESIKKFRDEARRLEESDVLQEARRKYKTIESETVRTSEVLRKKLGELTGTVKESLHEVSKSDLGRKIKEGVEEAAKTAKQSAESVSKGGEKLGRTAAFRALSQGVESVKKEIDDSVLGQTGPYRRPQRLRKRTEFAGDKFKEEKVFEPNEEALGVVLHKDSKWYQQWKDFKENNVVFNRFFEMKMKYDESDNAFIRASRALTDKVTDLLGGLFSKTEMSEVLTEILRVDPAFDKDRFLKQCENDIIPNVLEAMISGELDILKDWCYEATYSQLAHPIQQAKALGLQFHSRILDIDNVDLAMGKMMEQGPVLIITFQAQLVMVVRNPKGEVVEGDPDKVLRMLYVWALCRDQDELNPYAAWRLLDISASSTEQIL
UniProt Q01085: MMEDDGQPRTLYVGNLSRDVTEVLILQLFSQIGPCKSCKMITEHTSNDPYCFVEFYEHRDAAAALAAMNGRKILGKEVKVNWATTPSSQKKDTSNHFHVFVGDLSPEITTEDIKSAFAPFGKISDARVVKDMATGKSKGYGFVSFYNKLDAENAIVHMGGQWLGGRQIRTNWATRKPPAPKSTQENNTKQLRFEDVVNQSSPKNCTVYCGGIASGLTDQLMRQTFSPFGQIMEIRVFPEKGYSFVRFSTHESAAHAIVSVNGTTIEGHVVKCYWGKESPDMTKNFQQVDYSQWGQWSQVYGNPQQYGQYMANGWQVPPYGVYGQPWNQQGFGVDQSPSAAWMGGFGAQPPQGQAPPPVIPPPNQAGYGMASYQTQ
UniProt Q8TC07: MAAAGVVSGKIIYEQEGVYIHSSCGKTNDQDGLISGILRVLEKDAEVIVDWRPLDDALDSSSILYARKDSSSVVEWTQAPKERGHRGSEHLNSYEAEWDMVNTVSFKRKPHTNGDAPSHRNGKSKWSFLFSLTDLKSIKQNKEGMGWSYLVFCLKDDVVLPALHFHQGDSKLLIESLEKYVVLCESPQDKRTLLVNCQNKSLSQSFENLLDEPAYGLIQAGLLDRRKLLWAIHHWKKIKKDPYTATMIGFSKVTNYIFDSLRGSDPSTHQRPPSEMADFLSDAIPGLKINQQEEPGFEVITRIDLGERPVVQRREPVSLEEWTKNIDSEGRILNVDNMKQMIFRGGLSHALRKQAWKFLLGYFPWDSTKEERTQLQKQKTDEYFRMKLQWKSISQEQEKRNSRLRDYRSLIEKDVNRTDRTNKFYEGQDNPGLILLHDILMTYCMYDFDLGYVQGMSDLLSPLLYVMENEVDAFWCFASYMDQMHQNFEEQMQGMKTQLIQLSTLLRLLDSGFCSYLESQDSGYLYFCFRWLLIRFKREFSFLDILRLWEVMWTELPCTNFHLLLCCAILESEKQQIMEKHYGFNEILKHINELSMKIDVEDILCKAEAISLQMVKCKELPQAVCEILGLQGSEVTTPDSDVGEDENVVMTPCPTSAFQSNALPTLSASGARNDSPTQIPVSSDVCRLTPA
UniProt Q9BVV7: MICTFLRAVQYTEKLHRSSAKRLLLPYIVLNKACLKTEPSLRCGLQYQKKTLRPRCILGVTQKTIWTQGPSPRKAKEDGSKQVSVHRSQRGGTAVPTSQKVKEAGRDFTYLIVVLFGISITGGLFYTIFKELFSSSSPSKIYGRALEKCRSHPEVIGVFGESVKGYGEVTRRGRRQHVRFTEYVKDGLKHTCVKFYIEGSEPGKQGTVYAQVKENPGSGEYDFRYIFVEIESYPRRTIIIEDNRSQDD
UniProt Q66K14, whole entry, looked up: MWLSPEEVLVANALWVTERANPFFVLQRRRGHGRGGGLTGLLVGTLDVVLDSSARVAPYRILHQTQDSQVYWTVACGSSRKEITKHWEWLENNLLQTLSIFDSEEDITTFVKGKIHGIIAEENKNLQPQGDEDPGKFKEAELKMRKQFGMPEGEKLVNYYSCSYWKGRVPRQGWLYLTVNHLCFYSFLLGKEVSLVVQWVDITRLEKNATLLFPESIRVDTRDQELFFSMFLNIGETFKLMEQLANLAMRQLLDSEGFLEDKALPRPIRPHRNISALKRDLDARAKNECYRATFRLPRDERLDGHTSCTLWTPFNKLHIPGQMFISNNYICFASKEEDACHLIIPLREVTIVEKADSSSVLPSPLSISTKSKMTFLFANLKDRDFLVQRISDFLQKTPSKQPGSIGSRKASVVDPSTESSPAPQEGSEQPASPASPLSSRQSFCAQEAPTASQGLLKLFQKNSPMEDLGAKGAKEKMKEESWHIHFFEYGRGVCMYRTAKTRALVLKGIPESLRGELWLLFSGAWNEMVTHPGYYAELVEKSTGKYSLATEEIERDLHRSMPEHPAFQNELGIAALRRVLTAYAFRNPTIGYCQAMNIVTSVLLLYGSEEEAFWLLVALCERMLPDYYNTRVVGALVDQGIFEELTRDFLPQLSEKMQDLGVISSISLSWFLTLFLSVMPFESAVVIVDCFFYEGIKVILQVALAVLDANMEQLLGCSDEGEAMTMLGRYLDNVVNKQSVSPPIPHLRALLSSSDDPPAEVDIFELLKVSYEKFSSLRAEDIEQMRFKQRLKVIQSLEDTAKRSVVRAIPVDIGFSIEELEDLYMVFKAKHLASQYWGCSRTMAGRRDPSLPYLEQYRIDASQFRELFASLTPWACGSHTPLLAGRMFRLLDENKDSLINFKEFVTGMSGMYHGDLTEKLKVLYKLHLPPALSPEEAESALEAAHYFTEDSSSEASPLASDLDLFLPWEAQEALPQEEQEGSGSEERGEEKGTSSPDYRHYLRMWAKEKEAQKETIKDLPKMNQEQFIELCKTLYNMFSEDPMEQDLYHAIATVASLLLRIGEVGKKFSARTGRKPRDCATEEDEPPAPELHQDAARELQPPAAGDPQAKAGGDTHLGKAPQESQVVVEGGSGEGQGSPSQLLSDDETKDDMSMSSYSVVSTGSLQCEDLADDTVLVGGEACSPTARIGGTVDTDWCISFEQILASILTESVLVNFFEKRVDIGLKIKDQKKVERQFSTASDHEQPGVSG
UniProt Q8NHU6: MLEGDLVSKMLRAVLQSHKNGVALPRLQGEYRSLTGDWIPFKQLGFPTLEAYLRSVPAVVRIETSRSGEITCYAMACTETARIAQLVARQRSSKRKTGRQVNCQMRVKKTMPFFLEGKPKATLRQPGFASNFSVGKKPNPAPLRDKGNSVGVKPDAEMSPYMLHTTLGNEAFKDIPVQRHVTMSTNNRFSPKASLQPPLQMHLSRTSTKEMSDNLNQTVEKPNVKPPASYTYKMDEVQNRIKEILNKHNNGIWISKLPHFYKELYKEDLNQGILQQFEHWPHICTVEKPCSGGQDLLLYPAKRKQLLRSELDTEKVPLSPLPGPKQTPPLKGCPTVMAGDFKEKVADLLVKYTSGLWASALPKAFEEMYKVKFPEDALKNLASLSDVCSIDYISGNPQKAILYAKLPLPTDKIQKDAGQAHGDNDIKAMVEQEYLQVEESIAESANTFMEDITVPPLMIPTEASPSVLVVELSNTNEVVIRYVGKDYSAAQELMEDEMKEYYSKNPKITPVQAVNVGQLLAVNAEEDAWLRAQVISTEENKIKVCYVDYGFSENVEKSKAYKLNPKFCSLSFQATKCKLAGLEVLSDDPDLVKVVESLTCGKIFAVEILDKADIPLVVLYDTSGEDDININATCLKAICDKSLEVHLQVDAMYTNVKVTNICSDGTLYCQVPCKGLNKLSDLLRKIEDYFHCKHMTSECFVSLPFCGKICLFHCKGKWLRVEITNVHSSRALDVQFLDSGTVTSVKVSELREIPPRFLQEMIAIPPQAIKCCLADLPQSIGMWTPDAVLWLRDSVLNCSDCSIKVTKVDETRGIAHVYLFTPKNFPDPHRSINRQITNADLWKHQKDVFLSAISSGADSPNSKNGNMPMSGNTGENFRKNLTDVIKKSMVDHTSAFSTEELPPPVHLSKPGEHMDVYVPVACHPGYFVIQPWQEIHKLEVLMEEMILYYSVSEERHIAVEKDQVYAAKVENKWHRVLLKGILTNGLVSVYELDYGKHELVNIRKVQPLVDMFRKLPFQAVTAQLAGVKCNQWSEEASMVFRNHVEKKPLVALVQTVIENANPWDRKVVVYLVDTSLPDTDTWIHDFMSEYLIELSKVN
UniProt Q9ULP9: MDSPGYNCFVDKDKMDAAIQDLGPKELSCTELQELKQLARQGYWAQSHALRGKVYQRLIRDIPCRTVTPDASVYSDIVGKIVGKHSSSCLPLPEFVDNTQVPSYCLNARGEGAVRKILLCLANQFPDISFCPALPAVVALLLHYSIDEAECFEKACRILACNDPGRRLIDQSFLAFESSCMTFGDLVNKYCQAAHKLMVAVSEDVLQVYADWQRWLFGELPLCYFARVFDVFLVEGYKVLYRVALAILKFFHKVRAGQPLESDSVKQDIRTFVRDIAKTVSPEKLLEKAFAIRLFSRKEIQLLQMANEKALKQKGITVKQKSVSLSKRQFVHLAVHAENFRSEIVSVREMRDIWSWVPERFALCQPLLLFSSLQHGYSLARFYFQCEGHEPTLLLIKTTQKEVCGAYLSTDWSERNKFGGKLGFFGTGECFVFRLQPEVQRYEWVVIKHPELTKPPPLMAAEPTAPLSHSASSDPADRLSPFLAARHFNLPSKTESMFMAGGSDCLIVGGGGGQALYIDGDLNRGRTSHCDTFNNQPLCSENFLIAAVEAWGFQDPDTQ

Experiments:
Assay in all cases: log2 fold change, soluble protein after heating vs DMSO (PISA); higher = thermal stabilisation; K562 cells, 10 uM, 30 min; active = over 0.2 and 3.5 SD of the protein, either way, in both replicates (recomputed)
[1] = compound: C#Cc1cccc(Nc2ncnc3cc(OCCOC)c(OCCOC)cc23)c1 [erlotinib]
Outline: (§1)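 Soluble protein was defined as the supernatant after 21,000xg for 90 min. It came from K562 cells at 2×10^6 cells/mL given 10 μM compound for 30 min, heated in aliquots for 3 min across 48°C-58°C, pooled, and extracted in PBS with 0.5% NP-40 at 4°C, and was quantified by TMTpro 16plex LC-MS/MS with equalised channel sums. Thermal stability against control samples, from duplicates, is reported as log2 fold change.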

[2] = compound: C/C(=N\NC(=O)C1=CC(=CC=C1)S(=O)(=O)N2CCOCC2)/C3=C(C=CC(=C3)Cl)O
Outline: as §1

[3] = compound: C1=CC(=C(C=C1Cl)C2=NC3=NC=CN=C3C(=N2)NC4=CC=NC=C4)F
Outline: as §1

[4] = compound: C1=CC(=CC=C1C2=NC3=C(N2)C=C(C=C3)C(=O)N)OC4=CC=C(C=C4)Cl
Outline: as §1

[5] = compound: C1=CC2=C(C=CC(=C2)/C=C\3/C(=O)NC(=NCC4=CC=CS4)S3)N=C1
Outline: as §1

[6] = compound: C1=CC2=NC=CN=C2C=C1/C=C/3\C(=O)NC(=O)S3
Outline: as §1

[7] = compound: C1=CC=C(C=C1)C2=NC(=C(N2)C3=CC=NC=C3)C4=CC(=C(C=C4)Cl)O
Outline: as §1

[8] = compound: C1=CC=C2C(=C1)C3=NNC4=CC=CC(=C43)C2=O
Outline: as §1

[9] = compound: C1CCN(C1)C(=O)NC2=CC=CC(=C2)NC3=NC=C(C(=N3)NCCC4=CN=CN4)Br
Outline: as §1

[10] = compound: C1CN(CCC1(CC2=CC=C(C=C2)Cl)N)C3=NC=NC4=C3C=CN4
Outline: as §1

[11] = compound: C1COCCN1CCN2C3=CC=CC=C3N=C2NC(=O)C4=CC(=CC=C4)[N+](=O)[O-] [IRAK-1-4 Inhibitor I]
Outline: as §1

[12] = compound: C=CC(=O)N1CCC[C@@H](n2nc(-c3ccc(Oc4ccccc4)cc3)c3c(N)ncnc32)C1 [ibrutinib]
Outline: as §1

[13] = compound: CC(=O)c1cnc2ccc(-c3cc(Cl)c(O)c(Cl)c3)nc2c1N[C@H]1CC[C@H](CN(C)C)CC1
Outline: as §1

[14] = compound: CC(C)(C)Cn1c(N)nc2ccc(-c3[nH]c(C(C)(C)C)nc3-c3ccc(F)cc3)nc21 [ralimetinib]
Outline: as §1

[15] = compound: CC(C)(O)CC(=O)NCCn1ccc2ncnc(Nc3ccc(Oc4cccc(C(F)(F)F)c4)c(Cl)c3)c21
Outline: as §1

[16] = compound: CC(C)C1=C2N=C(C=C(N2N=C1)NCC3=CC=CC=C3)NCCCCCCN
Outline: as §1

[17] = compound: CC(C)C[C@@H](C=O)NC(=O)[C@H](CC(C)C)NC(=O)[C@H](CC(C)C)NC(=O)OCc1ccccc1
Outline: as §1

[18] = compound: CC(C)N(C[C@H]1O[C@@H](n2cnc3c(N)ncnc32)[C@H](O)[C@@H]1O)[C@H]1C[C@@H](CCc2nc3cc(C(C)(C)C)ccc3[nH]2)C1 [pinometostat]
Outline: as §1

[19] = compound: CC1=C(C(CC(=O)N1)C2=CC=C(C=C2)C(F)(F)F)C(=O)NC3=C(C=C4C(=C3)C=NN4)F
Outline: as §1

[20] = compound: CC1=C(C2=C(C=C1)C(=O)C3=CC=CC=C3N2CCCN)C
Outline: as §1

Target | log2 fold change [1] | log2 fold change [2] | log2 fold change [3] | log2 fold change [4] | log2 fold change [5] | log2 fold change [6] | log2 fold change [7] | log2 fold change [8] | log2 fold change [9] | log2 fold change [10] | log2 fold change [11] | log2 fold change [12] | log2 fold change [13] | log2 fold change [14] | log2 fold change [15] | log2 fold change [16] | log2 fold change [17] | log2 fold change [18] | log2 fold change [19] | log2 fold change [20]
TFDP1 (UniProt Q14186) | inactive: 0.054 | inactive: 0.021 | inactive: 0.058 | inactive: 0.037 | inactive: 0.054 | inactive: -0.023 | inactive: -0.002 | inactive: -0.026 | inactive: 0.105 | inactive: 0.015 | inactive: -0.061 | inactive: 0 | inactive: 0.348 | inactive: 0.046 | inactive: -0.076 | inactive: -0.172 | inactive: 0.017 | inactive: 0.035 | inactive: 0.01 | inactive: -0.155
THYN1 (UniProt Q9P016) | inactive: -0.061 | inactive: 0.007 | inactive: -0.041 | inactive: 0.125 | inactive: 0 | inactive: 0.006 | inactive: -0.032 | inactive: 0.145 | inactive: -0.002 | inactive: -0.037 | inactive: -0.032 | inactive: -0.028 | inactive: 0.039 | inactive: -0.01 | inactive: 0.036 | inactive: -0.046 | inactive: 0.025 | inactive: 0.004 |  | active: 0.331
TIMM22 (UniProt Q9Y584) | inactive: -0.013 | inactive: 0.212 | inactive: 0.006 | inactive: -0.003 | inactive: -0.173 | inactive: 0.05 | inactive: 0.063 | inactive: -0.011 | inactive: -0.075 | inactive: 0.05 | inactive: 0 | inactive: 0.014 | inactive: 0.134 | inactive: 0.172 | inactive: 0.046 | inactive: 0.044 | inactive: -0.129 | inactive: -0.12 | inactive: 0.027 | inactive: 0.052
TFAM (UniProt Q00059) | inactive: -0.085 | inactive: -0.071 | inactive: -0.127 | inactive: 0.031 | inactive: -0.009 | inactive: -0.022 | inactive: -0.068 | inactive: -0.05 | inactive: 0.06 | inactive: -0.078 | inactive: -0.047 | inactive: 0.03 | inactive: 0.07 | inactive: 0.044 | inactive: 0.043 | inactive: 0.007 | inactive: 0.056 | inactive: 0.05 |  | active: -0.414
TIMM8A (UniProt O60220) | inactive: -0.092 | inactive: 0.036 | inactive: 0.207 | inactive: 0.041 | inactive: 0.078 | inactive: 0.035 | inactive: 0.076 | inactive: 0.044 | inactive: -0.044 | inactive: -0.097 | inactive: -0.079 | inactive: 0.02 | inactive: -0.011 | inactive: -0.037 | inactive: -0.056 | inactive: -0.014 | inactive: -0.202 | inactive: 0.064 | inactive: 0.09 | inactive: 0.269
TBC1D5 isoform 2 (UniProt Q92609) | inactive: 0.019 | inactive: 0.111 | inactive: -0.03 | inactive: -0.041 | inactive: 0.044 | inactive: 0.032 | inactive: -0.049 | inactive: 0.027 | inactive: -0.003 | inactive: -0.078 | inactive: -0.022 | inactive: -0.01 | inactive: -0.009 | inactive: 0.023 | inactive: -0.179 | active: -0.325 | inactive: 0.076 | inactive: 0.003 |  | inactive: 0.02
TIMM9 (UniProt Q9Y5J7) | inactive: -0.034 | inactive: -0.088 | inactive: 0.272 | inactive: 0.052 | inactive: 0.15 | inactive: 0.159 | inactive: 0.109 | inactive: 0.096 | inactive: -0.075 | inactive: 0.027 | inactive: -0.055 | inactive: 0 | inactive: -0.022 | inactive: -0.144 | inactive: -0.142 | inactive: 0.101 | inactive: -0.046 | inactive: -0.101 | inactive: 0.024 | inactive: 0.202
TIMM44 (UniProt O43615) | inactive: -0.012 | inactive: 0.026 | inactive: 0.054 | inactive: -0.007 | inactive: 0.024 | inactive: 0.041 | inactive: 0.042 | inactive: 0.012 | inactive: 0.028 | inactive: -0.029 | inactive: 0.066 | inactive: -0.061 | inactive: -0.065 | inactive: -0.039 | inactive: -0.171 | active: -0.399 | inactive: 0.006 | inactive: -0.004 |  | inactive: 0.022
TEX30 (UniProt Q5JUR7) | inactive: 0.183 | inactive: 0.165 | inactive: -0.011 | inactive: -0.013 | inactive: 0.188 | inactive: 0.025 | inactive: -0.01 | inactive: 0.046 | inactive: -0.147 | inactive: -0.029 | inactive: -0.013 | inactive: 0.08 | inactive: -0.048 | inactive: 0.053 | inactive: -0.251 | inactive: -0.075 | inactive: 0.03 | inactive: 0.105 |  | inactive: 0.028
TIAL1 isoform 2 (UniProt Q01085) | inactive: 0.013 | inactive: -0.004 | inactive: 0.002 | inactive: 0 | inactive: 0.02 | inactive: 0.008 | inactive: -0.026 | inactive: 0.018 | inactive: 0.032 | inactive: -0.004 | inactive: 0.044 | inactive: 0.011 | inactive: -0.035 | inactive: -0.05 | inactive: 0.001 | inactive: 0.106 | inactive: 0.019 | inactive: -0.039 |  | active: 0.238
TBC1D15 isoform 3 (UniProt Q8TC07) | inactive: -0.007 | inactive: 0.075 | inactive: 0.024 | inactive: -0.029 | inactive: 0.059 | inactive: 0.067 | inactive: 0.029 | inactive: -0.035 | inactive: 0.016 | inactive: -0.048 | inactive: 0.235 | inactive: -0.021 | inactive: 0.009 | inactive: 0.041 | inactive: -0.082 | active: -0.326 | inactive: 0.012 | inactive: 0.056 |  | inactive: -0.01
TBCK (UniProt Q8TEA7) | inactive: 0.101 | inactive: 0.059 |  | inactive: 0.082 | inactive: 0.151 |  |  | inactive: -0.248 | inactive: 0.012 | inactive: 0.027 | inactive: 0.009 |  | inactive: -0.078 |  |  | inactive: -0.052 |  | inactive: 0.2 | inactive: -0.051 | inactive: 0.218
TBK1 (UniProt Q9UHD2) | inactive: -0.042 | inactive: 0.009 | inactive: 0.003 | inactive: -0.048 | inactive: 0.044 | inactive: 0.026 | inactive: -0.082 | inactive: 0.009 | inactive: 0.029 | inactive: -0.105 | inactive: -0.046 | inactive: -0.019 | inactive: -0.162 | inactive: 0.024 | inactive: -0.067 | inactive: -0.208 | inactive: 0.046 | inactive: 0.087 |  | inactive: -0.091
TIMM21 (UniProt Q9BVV7) | inactive: 0.026 | inactive: 0.068 | inactive: 0.004 | inactive: -0.008 | inactive: 0.035 | inactive: -0.001 | inactive: -0.001 | inactive: 0.081 | inactive: -0.002 | inactive: 0.021 | inactive: -0.009 | inactive: -0.02 | inactive: -0.026 | inactive: -0.01 | inactive: 0.011 | inactive: -0.169 | inactive: 0.099 | inactive: -0.02 |  | inactive: 0.063
TBC1D9B (UniProt Q66K14) | inactive: 0.07 | inactive: 0.001 | inactive: -0.087 | inactive: 0.072 | inactive: 0.151 | inactive: -0.092 | inactive: -0.011 | inactive: 0.021 | inactive: -0.055 | inactive: -0.058 | inactive: 0.038 | inactive: 0.079 | inactive: -0.075 | inactive: 0.071 | inactive: 0.103 | inactive: -0.133 | inactive: 0.032 | inactive: 0.051 |  | inactive: -0.042
TDRD7 (UniProt Q8NHU6) | inactive: 0.074 | inactive: 0.101 | inactive: -0.036 | inactive: 0.013 | inactive: -0.045 |  | inactive: 0.095 | inactive: 0 |  |  | inactive: 0.087 |  | inactive: -0.364 | inactive: -0.004 | inactive: 0.488 | inactive: 0.19 | inactive: -0.079 | inactive: -0.041 |  | 
TBC1D24 (UniProt Q9ULP9) | inactive: 0.038 | inactive: 0.068 | inactive: 0.059 | inactive: 0.037 | inactive: 0.072 | inactive: 0 | inactive: 0.048 | inactive: 0.053 | inactive: 0.042 | inactive: 0.157 | inactive: -0.025 | inactive: 0.022 | active: -0.415 | inactive: -0.086 | inactive: -0.057 | inactive: -0.09 | inactive: -0.053 | inactive: 0.04 |  | inactive: 0.142

Rewritten with tabs: entries from further up.
Target	log2 fold change [1]	log2 fold change [2]	log2 fold change [3]	log2 fold change [4]	log2 fold change [5]	log2 fold change [6]	log2 fold change [7]	log2 fold change [8]	log2 fold change [9]	log2 fold change [10]	log2 fold change [11]	log2 fold change [12]	log2 fold change [13]	log2 fold change [14]	log2 fold change [15]	log2 fold change [16]	log2 fold change [17]	log2 fold change [18]	log2 fold change [19]	log2 fold change [20]
TBC1D9B (UniProt Q66K14)	inactive: 0.07	inactive: 0.001	inactive: -0.087	inactive: 0.072	inactive: 0.151	inactive: -0.092	inactive: -0.011	inactive: 0.021	inactive: -0.055	inactive: -0.058	inactive: 0.038	inactive: 0.079	inactive: -0.075	inactive: 0.071	inactive: 0.103	inactive: -0.133	inactive: 0.032	inactive: 0.051		inactive: -0.042
TDRD7 (UniProt Q8NHU6)	inactive: 0.074	inactive: 0.101	inactive: -0.036	inactive: 0.013	inactive: -0.045		inactive: 0.095	inactive: 0			inactive: 0.087		inactive: -0.364	inactive: -0.004	inactive: 0.488	inactive: 0.19	inactive: -0.079	inactive: -0.041		
